PubChem BioAssay AID686938 | Drosophila RNAi Screening Center | 2013
In all, the deposit lists about 23,000 reagents; shown is an unselected part of those that have a named target and a result. Over the whole deposit, 75 (0.33%) were called active. 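Raw plate signals without normalisation; calls rest on plate z-scores that were not deposited; ratio present for only 364 wells.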 A number with no mark means an inactive call. The record does not give: the dose of the treatment.

- Purpose: 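Fly genes required for calcium entry once internal stores are emptied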 (primary screen)
- Cells: Drosophila S2R+ cells
- Reagents: long dsRNA against Drosophila genes, about 0.25 µg dsRNA per well, roughly 10,000 cells
- Time to read-out: 5 days of knock-down before the calcium assay
- Conditions: thapsigargin (SERCA pump blocker) to empty calcium stores; entry signal taken 4 min after adding it
- Measurement: 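Per-well fluo-4 fluorescence in two replicates, unnormalised, measured in resting cells and 4 min after store depletion by the SERCA blocker thapsigargin; ratio of the two present in few wells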
- Direction: calcium entry signal: higher = stronger calcium signal after store depletion; resting calcium signal: higher = higher resting calcium signal
- Active means: 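Hit if the duplicate-averaged plate z-score for entry over resting signal is under −3; wells with weak total dye signal (Fmax z < −2) or more than 5 off-targets removed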
- Calls: active = strongly reduced calcium entry; inactive = no strong reduction

predicted target	dsRNA	calcium entry signal, replicate 1 (fluorescence units)	calcium entry signal, replicate 2 (fluorescence units)	resting calcium signal, replicate 1 (fluorescence units)	resting calcium signal, replicate 2 (fluorescence units)
CG6425	DRSC16038	4.26e7	4.37e7	2.01e7	2.01e7
Zasp67	DRSC10169	3.43e7	4.85e7	1.69e7	1.89e7
MED16	DRSC04506	4.54e7	5.67e7	2.41e7	2.43e7
Pdi	DRSC11250	3.67e7	6.03e7	2.12e7	2.46e7
CG30053	DRSC07260	3.27e7	4.14e7	1.78e7	2.01e7
CG15336	DRSC18019	2.78e7	3.74e7	1.37e7	1.76e7
Eo	DRSC20187	5.21e7	3.12e7	2.49e7	1.35e7
MME1	DRSC02714	4.69e7		2.16e7	
betaTub65B	DRSC11393	2.88e7	5.04e7	1.45e7	2.31e7
CG11555	DRSC00315	4.28e7	4.07e7	2.11e7	1.89e7
CG11018	DRSC06024	3.18e7	2.78e7	1.49e7	1.43e7
beat-IV	DRSC14195	5.06e7	4.49e7	2.28e7	1.95e7
beat-IV	DRSC14673	3.55e7	5.89e7	1.76e7	2.28e7
CG8560	DRSC10994	5.46e7	4.02e7	3.48e7	1.69e7
Mur18B	DRSC20063	4.36e7	4.64e7	2.04e7	1.82e7
PGS1	DRSC16304	3.31e7	3.92e7	4.20e7	1.86e7
fwd	DRSC08580	4.45e7	3.99e7	1.96e7	1.99e7
CG4733	DRSC15634	3.62e7	4.15e7	5.82e7	1.78e7
nxf2	DRSC10403	2.72e7	3.67e7	1.18e7	2.51e7
Sardh	DRSC06981	3.24e7	3.74e7	1.51e7	1.75e7
Fancm	DRSC16348	3.27e7	2.50e7	1.56e7	1.24e7
Sh3beta	DRSC11001	5.80e7	4.05e7	3.80e7	1.55e7
Sh3beta	DRSC22053	3.35e7	6.32e7	1.66e7	2.97e7
lncRNA:CR43498	DRSC17621	4.11e7	3.39e7	1.81e7	1.37e7

Only “resting calcium signal, replicate 1 (fluorescence units)”, for 2 of the entries above:
Fancm [DRSC16348] = 1.56e7
Sh3beta [DRSC11001] = 3.80e7
